Structures are written as SMILES. Where a name gives a salt, the structure may show the parent alone. Some of the results follow. The calls rarely recur for the same compound in another form.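 In K562 cells expressing nanoluciferase-fused kinases, luminescence was recorded at 4 h intervals between 2 and 18 h, normalized as percent of control with DMSO at 100% and a positive control at 0%. A significant (2 sigma) signal drop marks a time point as decreased. The authors' rule for a hit is not shown and takes in more than the number of time points.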

By UniProt entry, the sequences of proteins in these tests, tags left out. Where a name states a change or a piece, a line headed by the entry shows the natural chain unless it says otherwise.
UniProt Q8IWU2: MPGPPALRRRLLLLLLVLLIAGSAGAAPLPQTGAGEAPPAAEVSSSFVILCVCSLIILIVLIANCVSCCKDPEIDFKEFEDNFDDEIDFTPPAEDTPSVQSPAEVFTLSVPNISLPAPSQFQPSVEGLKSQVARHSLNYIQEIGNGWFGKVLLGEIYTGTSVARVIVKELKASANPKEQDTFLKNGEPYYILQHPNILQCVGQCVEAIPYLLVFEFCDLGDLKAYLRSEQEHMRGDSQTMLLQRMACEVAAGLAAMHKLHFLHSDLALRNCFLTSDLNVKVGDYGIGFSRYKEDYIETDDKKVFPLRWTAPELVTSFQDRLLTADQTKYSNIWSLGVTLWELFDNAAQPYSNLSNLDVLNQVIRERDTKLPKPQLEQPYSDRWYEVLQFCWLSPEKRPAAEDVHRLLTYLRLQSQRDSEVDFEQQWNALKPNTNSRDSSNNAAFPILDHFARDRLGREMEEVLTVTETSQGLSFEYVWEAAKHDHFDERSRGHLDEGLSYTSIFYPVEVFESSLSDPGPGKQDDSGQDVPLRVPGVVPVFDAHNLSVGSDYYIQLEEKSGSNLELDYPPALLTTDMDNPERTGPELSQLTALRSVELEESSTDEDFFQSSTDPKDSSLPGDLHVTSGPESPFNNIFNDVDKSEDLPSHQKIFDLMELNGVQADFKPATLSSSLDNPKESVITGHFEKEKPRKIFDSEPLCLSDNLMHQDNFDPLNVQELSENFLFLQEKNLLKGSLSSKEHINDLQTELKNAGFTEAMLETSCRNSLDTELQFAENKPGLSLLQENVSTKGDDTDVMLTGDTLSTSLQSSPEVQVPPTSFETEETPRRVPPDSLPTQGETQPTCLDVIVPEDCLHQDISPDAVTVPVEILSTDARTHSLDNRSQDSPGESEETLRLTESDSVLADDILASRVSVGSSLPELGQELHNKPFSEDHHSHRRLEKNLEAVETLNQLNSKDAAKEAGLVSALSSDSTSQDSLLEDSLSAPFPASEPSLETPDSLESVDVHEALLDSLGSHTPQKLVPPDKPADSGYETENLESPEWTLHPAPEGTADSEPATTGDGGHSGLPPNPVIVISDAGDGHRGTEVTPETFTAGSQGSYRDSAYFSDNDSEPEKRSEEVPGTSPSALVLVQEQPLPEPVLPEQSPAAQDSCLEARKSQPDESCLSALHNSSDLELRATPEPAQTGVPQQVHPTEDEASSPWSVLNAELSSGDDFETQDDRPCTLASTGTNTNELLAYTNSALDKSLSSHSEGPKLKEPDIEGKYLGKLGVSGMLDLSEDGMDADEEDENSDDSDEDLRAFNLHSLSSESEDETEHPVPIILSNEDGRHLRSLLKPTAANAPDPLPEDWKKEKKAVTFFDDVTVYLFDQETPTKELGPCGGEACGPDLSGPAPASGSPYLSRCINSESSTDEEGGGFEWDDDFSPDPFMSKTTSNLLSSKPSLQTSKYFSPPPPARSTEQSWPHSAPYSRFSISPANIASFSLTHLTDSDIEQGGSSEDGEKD
UniProt P07948: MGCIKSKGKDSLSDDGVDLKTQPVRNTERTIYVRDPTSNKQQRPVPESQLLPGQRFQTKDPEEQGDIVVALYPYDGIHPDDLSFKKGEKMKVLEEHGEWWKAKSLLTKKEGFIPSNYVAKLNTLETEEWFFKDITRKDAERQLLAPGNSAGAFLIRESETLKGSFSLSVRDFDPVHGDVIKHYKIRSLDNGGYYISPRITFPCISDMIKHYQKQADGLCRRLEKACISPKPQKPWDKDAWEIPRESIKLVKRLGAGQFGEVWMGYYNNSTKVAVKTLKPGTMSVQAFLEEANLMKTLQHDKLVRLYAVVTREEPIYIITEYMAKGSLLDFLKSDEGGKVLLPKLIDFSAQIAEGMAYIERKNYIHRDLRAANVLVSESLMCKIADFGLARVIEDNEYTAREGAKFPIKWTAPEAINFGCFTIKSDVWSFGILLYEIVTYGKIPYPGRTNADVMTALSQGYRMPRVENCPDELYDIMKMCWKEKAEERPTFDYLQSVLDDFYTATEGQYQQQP

The target of the first test is LMTK2 (UniProt Q8IWU2). Nature of the test: number of time points (of 5) at which kinase-Nluc abundance scored as decreased, DMSO-normalised (count); higher = more persistent destabilization. Conditions: K562; 2-18 h.
For the compound `CC(C)=CCC/C(C)=C/CC/C(C)=C/C=C/C(C)=C/C(=O)O` [Peretinoin] (10 µM), the “number of time points” value was determined as 0. The same measure, in the same setting: for `C=CC(=O)N1CC[C@@H](Oc2nc(Nc3ccc(N4CCC(N5CCN(C)CC5)CC4)cc3)c(C(N)=O)nc2CC)C1` [Naquotinib (mesylate)] (2.5 µM) the value was 0. Still for that read-out and setting: for `CC(Sc1nc2c(cnn2-c2cccc(Cl)c2)c(=O)[nH]1)C(N)=O` (stereo not drawn) (10 µM) the value was 0; for `Cc1cc(O)c2c(c1)C(=O)c1cccc(O)c1C2=O` [Chrysophanol] (2 µM), 0. Turning to `O=C1OC(/C=C/c2ccccc2)=NC/1=C\c1cccnc1` (10 µM), the “number of time points” value was 0.

The target in the next test is LYN (UniProt P07948). Described as above. Conditions: K562; 2-18 h.
As for `CN1CCN(c2cc(-c3ccncc3)c(-c3ccc4ccccc4c3)nn2)CC1` (10 µM), the “number of time points” value is 0. On the same count and under the same terms, for `CC(O)(C#Cc1ccc2c(c1)N(c1nc(N)ncc1Cl)CC2)c1nccs1` (stereo not drawn) (2.5 µM) the value was 0; for `COc1ccc(Nc2ncc(C(F)(F)F)c(NC3CC3)n2)cc1OC` (10 µM), 0. On the same count and under the same terms, for `O=c1cc(N2CCOCC2)oc2c(-c3ccc4c(c3)OCCO4)csc12` (2.5 µM) the value was 0; for `N[C@@H]1CCCN(c2c(/C=C3\SC(=O)NC3=O)cccc2-c2ccccc2)C1` (10 µM), 0; for `N#Cc1ccc(-c2cnc3[nH]cc(NC(=O)c4cccnc4)c3c2)cc1` (10 µM), 0. On the same count and under the same terms, next, `COc1ccc(Br)cc1NC(=O)Nc1cccc2c1ccn2Cc1ccnc(N)c1` (2.5 µM): 0. Consider `COc1cc(N2CCOCC2)ccc1Nc1ncc(F)c(Nc2ccccc2NS(C)(=O)=O)n1` (10 µM), for which the “number of time points” value is 0.

For the compound `COc1ccc(-c2cc(=O)c3c(OC)cc(OC)c(OC)c3o2)cc1` [6-Demethoxytangeretin] (10 µM), the “number of time points” value is 0. For the compound `COc1cc2c(cc1O)C[C@H]1c3cc(O)c(OC)cc3CC[N@@+]1(C)C2` [Phellodendrine] (10 µM), the “number of time points” value amounted to 0. For the compound `CO[C@H]1C[C@@H]2CC[C@@H](C)[C@@](O)(O2)C(=O)C(=O)N2CCCC[C@H]2C(=O)O[C@H]([C@H](C)C[C@@H]2CC[C@@H](OC(=O)C(C)(CO)CO)[C@H](OC)C2)CC(=O)[C@H](C)/C=C(\C)[C@@H](O)[C@@H](OC)C(=O)[C@H](C)C[C@H](C)/C=C/C=C/C=C/1C` [Temsirolimus] (2.5 µM), the “number of time points” value is 0. Still for that read-out and setting: for `O=C(ON=C1c2ccccc2-c2nc3ccccc3nc21)c1ccco1` (2.5 µM) the value was 0; for `COc1ccc(S(=O)(=O)Nc2cc(-c3c(O)ccc4ccccc34)c(O)c3ccccc23)cc1` (10 µM), 0; for `Cc1cccc(COc2cccc(/C=C3\C(=O)NN(c4ccccc4)C3=O)c2)c1` (10 µM), 0.

Take `CC(C)Oc1ccc(F)c(-c2cnc(N)c(C(=O)Nc3cnccc3N3CCC[C@@H](C(=O)O)C3)n2)c1` (2 µM): the “number of time points” value came out at 0. On the same count and under the same terms, for `COc1cc(F)ccc1-c1ncnc(Nc2cccc(C[S@](C)(=N)=O)c2)n1` [Atuveciclib] (2.5 µM) the value was 0; for `CC(C)n1ncnc1-c1cn2c(n1)-c1ccc(O[C@@H](C)C(N)=O)cc1OCC2` (10 µM), 0; for `Cn1c(CNc2cccc(C(=O)NCc3ccccc3C(F)(F)F)c2)nnc1-c1ccncc1` (10 µM), 0. With `O=Nc1c(-c2c(O)[nH]c3cc(Br)ccc23)[nH]c2ccccc12` [GSK 3 Inhibitor IX] (2.5 µM), the “number of time points” value was 0. On to `Nc1ncc(C(=O)NC2CN(C(=O)C3CC3)C2)c2ccc(-c3cccc(F)c3)nc12` (2 µM), for which the “number of time points” value came out at 0. In the case of `O=C(Nc1cc(Cl)cc2c1[nH]c1cnccc12)c1cccnc1` (10 µM), the “number of time points” value came to 0. On the same count and under the same terms, next, `c1ccc(Cn2c(-c3ccc(OC[C@H](C4CCNCC4)n4c(-c5ccccc5)nc5ccccc54)cc3)nc3ccccc32)cc1` [Deltarasin] (2.5 µM): 0; `COc1cc2ncnc(Nc3cccc(I)c3)c2cc1OC` (2.5 µM): 0. `Clc1ccc(C(c2ccc(Cl)cc2)[n+]2ccn(CC(OCc3ccc(Cl)cc3Cl)c3ccc(Cl)cc3Cl)c2)cc1` (stereo not drawn) [Calmidazolium chloride] (2.5 µM): the “number of time points” value stood at 0. For `O=C(Nc1cccnc1)c1cc(-c2ccnc(F)c2)ccc1OCc1ccccc1` (10 µM), the “number of time points” value is 0. Consider `c1nn(C2CCOCC2)cc1Nc1ncc2nnn(-c3ccc4cn[nH]c4c3)c2n1` (10 µM), for which the “number of time points” value was found to be 0. Consider `COC(=O)[C@H](CCSC)NC(=O)c1ccc(NC[C@@H](N)CS)cc1-c1ccccc1` [FTI-277 (hydrochloride)] (10 µM), for which the “number of time points” value amounted to 0. Still for that read-out and setting: for `Cc1cc(Nc2cc(N)ncn2)c(=O)n2c1C(=O)NC21CCCCC1` [Tomivosertib] (10 µM) the value was 0.
